{"source": "patent US5053392A", "about": "“Novel arginine, glycine, aspartic acid derivatives as platelet-aggregation inhibitors” (Rhone-Poulenc Rorer Pharmaceuticals Inc., priority 1989, dated 1991)", "key": {"[1]": {"test_system": "thrombin-stimulated platelets", "assay": "Inhibition of radiolabeled (125I) fibrinogen binding assay", "conditions": "read-out: Inhibition of 125I-Fibrinogen Binding to Platelet IC50", "procedure": "I. Inhibition of Radiolabeled (125I) Fibrinogen Binding Assay, which is essentially based on the method described in Proc Natl. Acad. Sci. U.S.A. Vol. 83, pp. 5708-5712, August 1986, and is as follows.\nPlatelets are washed free of plasma constitutes by the albumin density-gradient technique. In each experimental mixture platelets in modified Tyrode's buffer are stimulated with human α-thrombin at 22°-25° C. for 10 minutes (3.125×10\" platelets per liter and thrombin at […]). Hirudin is then added at a 25-fold excess for 5 minutes before addition of the radiolabeled ligand and any competing ligand. After these additions, the final platelet count in the mixture is […], bound and free ligand are separated by centrifuging 50 μl of the mixture through 300 μl of 20% sucrose at 12,000×g for 4 minutes. The platelet pellet is then separated from the rest of the mixture to determine platelet-bound radioactivity. Nonspecific binding is measured in mixtures containing an excess of unlabeled ligand. When binding curves are analyzed by Scatchard analysis, nonspecific binding is derived as a fitted parameter from the binding isotherm by means of a computerized program. To determine the concentration of each inhibitory compound necessary to inhibit 50% of fibrinogen binding to thrombin-stimulated platelets (IC50), each compound is tested at 0.176 μgmol/liter (60 μg/ml). […]"}, "[2]": {"test_system": "Human Platelets", "assay": "Inhibition of fibrinogen-mediated platelet aggregation", "format": "cell-based", "procedure": "II. Inhibition of Fibrinogen - Mediated Platelet Aggregation, which is essentially based on the method described in Blood, Vol. 66, No. 4, October 1985, pp. 846-952, and is as follows.\nHuman Platelets were isolated from freshly drawn whole blood and were suspended in 0.14 mol/L NaCl, 2.7 mmol/L […], 12 mmol/L NaHCO3, 0.42 mmol/L Na2 HPO4, 0.55 mmol/L glucose, and 5 mmol/L Hepes, pH 7.35 at 2×10^8 platelets/ml. The suspension was incubated at 37° C. An aliquot of 0.4 ml of platelet suspension was activated by human thrombin at a final concentration of 2 μg/ml of thrombin for one minute. After one minute the reaction was stopped by a thrombin inhibitor. Serial dilution of the compound being tested was then added to the activated platelet, the reaction was allowed to proceed for one minute, followed by the addition of human fibrinogen at a final concentration of […] of fibrinogen. Platelet aggregation was then recorded by an aggregometer. Rate of aggregation was used to calculate IC50."}}, "note": "Not every detail of the peptide structures is certain; ends, links or a residue may be inferred.", "data": [{"smiles": "CC(C)[C@H](NC(=O)[C@H](CC(=O)O)NC(=O)[C@@H]1CCN1C(=O)CCCCNC(=N)N)C(=O)O", "note": "[N-(5-guanidinopentanoyl)azetidine(2S)-carboxyl-Asp-Val]", "values": [{"measurement": "IC50", "setting": "[1]", "result": 1.3, "unit": "µM"}, {"measurement": "Inhibition of Fibrinogen Mediated Platelet Aggregation % inhibition at 25 μm", "setting": "[2]; at 25 μm", "result": 95, "unit": "%"}, {"measurement": "IC50", "setting": "[2]; thrombin-activated human platelets, rate of aggregation", "result": 1.2, "unit": "µM"}]}]}
